From US9895450B2, “Anti-wall teichoic antibodies and conjugates” (priority 2013, dated 2018)
At least one compound was matched to its structure with a doubt left.

Test system: MRSA (NRS384 strain of USA300)
Assay: MIC determinations for intracellular bacteria (inside mouse peritoneal macrophages)
Type: cell-based, S. aureus
Details: dose range including serum Cmax

CO[C@H]1/C=C/O[C@@]2(C)Oc3c(C)c(O)c4c(O)c(c(/C=N/N5CCN(C)CC5)c(O)c4c3C2=O)NC(=O)/C(C)=C\C=C\[C@H](C)[C@H](O)[C@@H](C)[C@@H](O)[C@@H](C)[C@H](OC(C)=O)[C@@H]1C [Rifampicin, rifampicin]
killing of intracellular MRSA sequestered inside macrophages: failed to kill
